PubChem BioAssay AID1159578 – Peter MacCallum Cancer Centre, 2015
The whole screen tested about 18,000 reagents; below is an unselected part. About 1,030 of them (5.7%) were called active. 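Inactive calls also include pools with fewer than 3300 nuclei, whose migration was not assessed.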 The raw values are shown without normalisation. Entries without a mark were called inactive. Not all columns of the deposit are shown.

- Purpose: 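Genome-wide hunt for genes controlling movement of lymphatic endothelial cells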 (primary screen)
- System: human lymphatic endothelial cells
- Knock-down reagent: siRNA pool against human genes, 40 nM
- Time to read-out: 48 h after transfection
- Detection: 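Cells stained with dye and imaged after a scratch; covered wound area and nuclei counted, duplicates averaged, migration set against mock wells and turned into a robust z-score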
- Reading the numbers: migration robust z-score: higher = faster migration into the scratch; nuclei per well: higher = more cells in the well
- Call rule: 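Pools averaging fewer than 3300 nuclei are never called; remaining pools count as changed when migration robust z lies outside -2 to 2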
- Meaning of the calls: active = migration changed; inactive = no migration change, or too few cells

The first 2 entries, ahead of the listing:
ASB3 (ankyrin repeat and SOCS box containing 3) | migration robust z-score = -1.76; migration class with cell-count check = migration z between -2 and 2; enough cells; nuclei per well, duplicate mean = 5109
MRTFA (myocardin related transcription factor A) | migration robust z-score = 0.11; migration class with cell-count check = migration z between -2 and 2; enough cells; nuclei per well, duplicate mean = 7039

The list itself, repeating the preview:
ASB3 (ankyrin repeat and SOCS box containing 3) | migration robust z-score = -1.76; migration class with cell-count check = migration z between -2 and 2; enough cells; nuclei per well, duplicate mean = 5109
MRTFA (myocardin related transcription factor A) | migration robust z-score = 0.11; migration class with cell-count check = migration z between -2 and 2; enough cells; nuclei per well, duplicate mean = 7039
LVRN (laeverin) | migration robust z-score = 0.36; migration class with cell-count check = migration z between -2 and 2; enough cells; nuclei per well, duplicate mean = 5128
TJP2 (tight junction protein 2) | migration robust z-score = 0.65; migration class with cell-count check = migration z between -2 and 2; enough cells; nuclei per well, duplicate mean = 5120
PPP1R21 (protein phosphatase 1 regulatory subunit 21) | migration robust z-score = -0.26; migration class with cell-count check = migration z between -2 and 2; enough cells; nuclei per well, duplicate mean = 6312
PIH1D2 (PIH1 domain containing 2) | migration robust z-score = 0.48; migration class with cell-count check = migration z between -2 and 2; enough cells; nuclei per well, duplicate mean = 6098
H2BC21 (H2B clustered histone 21) | migration robust z-score = 0.99; migration class with cell-count check = migration z between -2 and 2; enough cells; nuclei per well, duplicate mean = 5036
CD28 (CD28 molecule) | migration robust z-score = 0.78; migration class with cell-count check = migration z between -2 and 2; enough cells; nuclei per well, duplicate mean = 6123
NFE2 (nuclear factor, erythroid 2) | migration robust z-score = -0.28; migration class with cell-count check = migration z between -2 and 2; enough cells; nuclei per well, duplicate mean = 5573
KCTD6 (potassium channel tetramerization domain containing 6) | migration robust z-score = 0.39; migration class with cell-count check = migration z between -2 and 2; enough cells; nuclei per well, duplicate mean = 6054
TXNRD1 (thioredoxin reductase 1) | migration robust z-score = 0.07; migration class with cell-count check = migration z between -2 and 2; enough cells; nuclei per well, duplicate mean = 7460
ADD1 (adducin 1) | migration robust z-score = 0.05; migration class with cell-count check = migration z between -2 and 2; enough cells; nuclei per well, duplicate mean = 5721
SLC38A4 | migration robust z-score = 0.54; migration class with cell-count check = migration z between -2 and 2; enough cells; nuclei per well, duplicate mean = 5428
ANKRD36 (ankyrin repeat domain 36) | migration robust z-score = 0.31; migration class with cell-count check = migration z between -2 and 2; enough cells; nuclei per well, duplicate mean = 5608
